Measured values reported in article PMC5225165.
These are yes or no findings as the source states them, for the method shown. In cells and extracts the contact can be indirect. Some results given as binding are weak or reduced against the parent protein; the word gives no strength.

B1: inwardly rectifying K+ channel subtype Kir5.1 (protein, UniProt Q9Z307 1-419)
chain: MSYYGSSYRIVNVDSKYPGYPPEHAIAEKRRARRRLLHKDGSCNVYFKHIFGEWGSYMVDIFTTLVDTKWRHMFVIFSLSYILSWLIFGSIFWLIAFHHGDLLSDPDITPCVDNVHSFTAAFLFSLETQTTIGYGYRCVTEECSVAVLTVILQSILSCIINTFIIGAALAKMATARKRAQTIRFSYFALIGMRDGKLCLMWRIGDFRPNHVVEGTVRAQLLRYSEDSEGRMTMAFKDLKLVNDQIILVTPVTIVHEIDHESPLYALDRKAVAKDNFEILVTFIYTGDSTGTSHQSRSSYIPREILWGHRFHDVLEVKRKYYKVNCLQFEGSVEVYAPFCSAKQLDWKDQQLNNLEKTSPARGSCNSDTNTRRRSFSAVAVVSSCENPEETVLSPQDECKEMPYQKALLTLNRISMESQM
B2: inwardly rectifying K+ channel subtype Kir4.1 (protein, UniProt Q9JM63 1-379)
chain: MTSVAKVYYSQTTQTESRPLVAPGIRRRRVLTKDGRSNVRMEHIADKRFLYLKDLWTTFIDMQWRYKLLLFSATFAGTWFLFGVVWYLVAVAHGDLLELGPPANHTPCVVQVHTLTGAFLFSLESQTTIGYGFRYISEECPLAIVLLIAQLVLTTILEIFITGTFLAKIARPKKRAETIRFSQHAVVASHNGKPCLMIRVANMRKSLLIGCQVTGKLLQTHQTKEGENIRLNQVNVTFQVDTASDSPFLILPLTFYHVVDETSPLKDLPLRSGEGDFELVLILSGTVESTSATCQVRTSYLPEEILWGYEFTPAISLSASGKYIADFSLFDQVVKVASPSGLRDSTVRYGDPEKLKLEESLREQAEKEGSALSVRISNV

Legend:
[1] = target: T1, inwardly rectifying K+ channel subtype Kir4.1 (mouse (endogenous in brain and optic nerve)) (UniProt Q9JM63); assay: co-IP; total brain and optic nerve homogenates of adult wild type mice (P16-40); antibody overnight at 4 °C, Protein G MicroBeads (µMACS), washes in 150 mM NaCl, 1 % Triton X-100, 50 mM Tris HCl pH 8.0, then low-salt wash; western blot of the eluate; negative controls Kir4.1 knock-out tissue or antibody preabsorbed with blocking peptide
T1 sequence: B2 chain

[2] = target: T2, inwardly rectifying K+ channel subtype Kir5.1 (mouse (endogenous in brain and optic nerve)) (UniProt Q9Z307); assay: as above
T2 sequence: B1 chain

Row | Binder | binding [1] | binding [2]
1 | B1 | binds | 
2 | B2 |  | binds
